Source: PubChem BioAssay AID1159578 (Peter MacCallum Cancer Centre, 2015)

Screen: 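Knock-downs that alter how fast lymphatic endothelial cells migrate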 (primary screen)
Cells: human lymphatic endothelial cells
Reagents: siRNA pool against human genes, 40 nM
Timing: 48 h after transfection
Measured: 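Cells stained with dye and imaged after a scratch; covered wound area and nuclei counted, duplicates averaged, migration set against mock wells and turned into a robust z-score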
Reading the numbers: migration robust z-score: higher = faster migration into the scratch; migration relative to mock: higher = more scratch area covered than mock; nuclei per well: higher = more cells in the well
Hit rule: 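Pools averaging fewer than 3300 nuclei are never called; remaining pools count as changed when migration robust z lies outside -2 to 2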
Calls: active = migration changed; inactive = no migration change, or too few cells
In all, the deposit lists about 18,000 reagents; shown is a part drawn at random. About 1,030 of them (5.7%) were called active. 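Inactive calls also include pools with fewer than 3300 nuclei, whose migration was not assessed.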 Raw values vary from plate to plate and are shown uncorrected.

target | PubChem SID | migration robust z-score | migration class with cell-count check | migration relative to mock | nuclei per well, duplicate mean | outcome
ZKSCAN1 | SID255353207 | -0.22 | migration z between -2 and 2; enough cells | 0.82 | 5218 | inactive
SPEM1 | SID255365331 | 0.9 | migration z between -2 and 2; enough cells | 1.12 | 6788 | inactive
RNF112 | SID255353259 | 0.24 | migration z between -2 and 2; enough cells | 0.85 | 5204 | inactive
CUL7 | SID255354583 | -1.5 | migration z between -2 and 2; enough cells | 0.51 | 5272 | inactive
NGEF | SID255356461 | -0.16 | migration z between -2 and 2; enough cells | 0.84 | 5678 | inactive
ZNF300 | SID255361970 | 0.86 | migration z between -2 and 2; enough cells | 1.11 | 5180 | inactive
CAPZB | SID255348693 | -1.18 | migration z between -2 and 2; enough cells | 0.58 | 3932 | inactive
TCL6 | SID255356872 | -0.41 | migration z between -2 and 2; enough cells | 0.78 | 6662 | inactive
CRISP2 | SID255352955 | 0.16 | migration z between -2 and 2; enough cells | 0.93 | 5900 | inactive
YIPF1 | SID255358004 | 1.5 | migration z between -2 and 2; enough cells | 1.27 | 6372 | inactive
VEGFB | SID255353103 | -0.65 | migration z between -2 and 2; enough cells | 0.68 | 5406 | inactive
METRNL | SID255364751 | -0.16 | migration z between -2 and 2; enough cells | 0.84 | 6398 | inactive
LHFPL6 | SID255354877 | 0.26 | migration z between -2 and 2; enough cells | 0.96 | 5202 | inactive
IKZF5 | SID255359907 | 0.2 | migration z between -2 and 2; enough cells | 0.94 | 5236 | inactive
PSMA5 | SID255351880 | 0.18 | migration z between -2 and 2; enough cells | 0.84 | 5413 | inactive
HFM1 | SID255363803 | 1.09 | migration z between -2 and 2; enough cells | 1.17 | 6650 | inactive
ANKRD17 | SID255356644 | -0.89 | migration z between -2 and 2; enough cells | 0.65 | 6158 | inactive
GBP1 | SID255349844 | -1.04 | migration z between -2 and 2; enough cells | 0.61 | 5366 | inactive
GDF5 | SID255353418 | -0.22 | migration z between -2 and 2; enough cells | 0.82 | 5897 | inactive
ANO1 | SID255358414 | -0.66 | migration z between -2 and 2; enough cells | 0.72 | 5208 | inactive
SERF2 | SID255354866 | 0.05 | migration z between -2 and 2; enough cells | 0.9 | 5100 | inactive
MXI1 | SID255351082 | 0.83 | migration z between -2 and 2; enough cells | 0.97 | 6254 | inactive
OGN | SID255351346 | 0.15 | migration z between -2 and 2; enough cells | 0.92 | 5415 | inactive

Sorted by “migration relative to mock” (descending): 2 of the entries above
target | PubChem SID | migration robust z-score | migration class with cell-count check | migration relative to mock | nuclei per well, duplicate mean | outcome
YIPF1 | SID255358004 | 1.5 | migration z between -2 and 2; enough cells | 1.27 | 6372 | inactive
VEGFB | SID255353103 | -0.65 | migration z between -2 and 2; enough cells | 0.68 | 5406 | inactive
